These are yes or no findings as the source states them, for the method shown. In cells and extracts the contact can be indirect. Some entries that bind do so weakly or less than the wild type.
Molecular target: FLAG-tagged Signal Regulatory Protein Beta 1 (SIRPB1^MUT, sgRNA-resistant synonymous mutant) (UniProt O00241)
Experiment: co-IP; macrophage lysate (IP lysate with protease inhibitors) incubated overnight at 4 °C with FLAG antibody or mouse IgG, protein A/G beads 6 h at 4 °C, eluted with 1x loading buffer

Chains of the proteins cited; added tags and fusions are not shown. Lines headed by an entry give the natural chain unless they say otherwise; changes in a name come on top. Residues count along the entry.
UniProt O00241, residues 30-398: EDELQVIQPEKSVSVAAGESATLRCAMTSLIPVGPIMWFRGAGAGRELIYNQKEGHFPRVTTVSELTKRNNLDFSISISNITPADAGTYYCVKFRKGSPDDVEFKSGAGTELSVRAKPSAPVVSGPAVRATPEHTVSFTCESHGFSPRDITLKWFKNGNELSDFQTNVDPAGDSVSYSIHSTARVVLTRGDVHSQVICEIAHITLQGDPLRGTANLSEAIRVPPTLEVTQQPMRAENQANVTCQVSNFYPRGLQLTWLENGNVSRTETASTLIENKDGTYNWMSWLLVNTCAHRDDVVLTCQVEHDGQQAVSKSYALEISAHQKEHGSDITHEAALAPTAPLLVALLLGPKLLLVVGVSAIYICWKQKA
UniProt O43914, residues 22-113: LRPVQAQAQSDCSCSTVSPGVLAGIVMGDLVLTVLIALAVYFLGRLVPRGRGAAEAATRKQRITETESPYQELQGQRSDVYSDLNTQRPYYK

Q: “DAP12 adaptor protein (from UniProt O43914 22-113)” was tested. Which binding did it give?
A: Its binding is “binds”.

— PMC11003053
